Legend:
[1] = Bitterness masking of additives added to Control Example 1, scored on the equi-bitter paracetamol scale
[2] = Bitterness of Control Example 1 with edible emulsifiers added; conditions: emulsifier 0.1 g per dose in Control Example 1, 40 ml, 100% paracetamol
[3] = additive 0.020 g/serving in Control Example 1, 40 ml
[4] = additive 0.040 g/serving in Control Example 1, 40 ml
[5] = additive 0.10 g/serving in Control Example 1, 40 ml
[6] = additive 0.20 g/serving in Control Example 1, 40 ml

**Q.** With `NCC(=O)O` [Glycine] as the molecule, how does the “Equi-bitter paracetamol concentration (%)” value [1, 3] read?
**A.** 100%

**Q.** And the “Equi-bitter paracetamol concentration (%)” value [1, 4]?
**A.** 95%

**Q.** What about the “Equi-bitter paracetamol concentration (%)” value ([1]; additive 0.080 g/serving in Control Example 1, 40 ml) of the same molecule?
**A.** 90%

**Q.** What about the “Equi-bitter paracetamol concentration (%)” value ([1]; additive 0.160 g/serving in Control Example 1, 40 ml) of the same molecule?
**A.** 85%

**Q.** What about the “Equi-bitter paracetamol concentration (%)” value ([1]; additive 0.320 g/serving in Control Example 1, 40 ml) of the same molecule?
**A.** 80%

**Q.** For `[Cl-].[Na+]` [Sodium chloride], which “Equi-bitter paracetamol concentration (%)” value ([1]; additive 0.0025 g/serving in Control Example 1, 40 ml) is on record?
**A.** 100%

**Q.** And the “Equi-bitter paracetamol concentration (%)” value ([1]; additive 0.0050 g/serving in Control Example 1, 40 ml)?
**A.** 100%

**Q.** What about the “Equi-bitter paracetamol concentration (%)” value ([1]; additive 0.010 g/serving in Control Example 1, 40 ml) of the same molecule?
**A.** Possible slight reduction

**Q.** What about the “Equi-bitter paracetamol concentration (%)” value [1, 3] of the same molecule?
**A.** Salty

**Q.** What about the “Equi-bitter paracetamol concentration (%)” value [1, 4] of the same molecule?
**A.** Salty

**Q.** With Magnesium gluconate as the molecule, how does the “Equi-bitter paracetamol concentration (%)” value [1, 5] read?
**A.** 90%

**Q.** What about the “Equi-bitter paracetamol concentration (%)” value [1, 6] of the same molecule?
**A.** 85%

**Q.** And the “Equi-bitter paracetamol concentration (%)” value ([1]; additive 0.40 g/serving in Control Example 1, 40 ml)?
**A.** 80-82%

**Q.** And the “Equi-bitter paracetamol concentration (%)” value ([1]; additive 0.80 g/serving in Control Example 1, 40 ml)?
**A.** 75%

**Q.** And the “Equi-bitter paracetamol concentration (%)” value ([1]; additive 1.60 g/serving in Control Example 1, 40 ml)?
**A.** 70%

**Q.** For Polysorbate 80, which “bitterness of the formulation” value [2] is on record?
**A.** reduced bitterness

**Q.** With “Sodium steroyl-1-lactylate [sodium steroyl-2-actylate]” as the molecule, how does the “bitterness of the formulation” value [2] read?
**A.** no reduction

**Q.** Which “Equi-bitter paracetamol concentration (%)” value ([1]; additive 0.025 g/serving in Control Example 1, 40 ml) does the source give for Sucrose ester here?
**A.** 100%

**Q.** And the “Equi-bitter paracetamol concentration (%)” value ([1]; additive 0.050 g/serving in Control Example 1, 40 ml)?
**A.** 100%

**Q.** And the “Equi-bitter paracetamol concentration (%)” value [1, 5]?
**A.** 95-100%

**Q.** What about the “Equi-bitter paracetamol concentration (%)” value ([1]; additive 0.150 g/serving in Control Example 1, 40 ml) of the same molecule?
**A.** 90-95%

**Q.** And the “Equi-bitter paracetamol concentration (%)” value [1, 6]?
**A.** 90%

— patent US20050037091A1, “Composition comprising paracetamol and a bitterness masking component” (priority 2001, published 2005)
